Here are results for one molecule from paper PMC11784297.

This experiment has as its target STAT2 (construct of Fig. 4A and 4B), P52630. The experiment is described as follows: co-IP. Particulars: remark: other sources report otherwise.

Results are given in words; binding and its absence hold for the method and conditions named. Binding seen in cells or lysates may run through a third protein. Some entries that bind do so weakly or less than the wild type.

B1: IRF9 (construct of Fig. 4B), Q00978 1-393 (protein)
chain: MASGRARCTRKLRNWVVEQVESGQFPGVCWDDTAKTMFRIPWKHAGKQDFREDQDAAFFKAWAIFKGKYKEGDTGGPAVWKTRLRCALNKSSEFKEVPERGRMDVAEPYKVYQLLPPGIVSGQPGTQKVPSKRQHSSVSSERKEEEDAMQNCTLSPSVLQDSLNNEEEGASGGAVHSDIGSSSSSSSPEPQEVTDTTEAPFQGDQRSLEFLLPPEPDYSLLLTFIYNGRVVGEAQVQSLDCRLVAEPSGSESSMEQVLFPKPGPLEPTQRLLSQLERGILVASNPRGLFVQRLCPIPISWNAPQAPPGPGPHLLPSNECVELFRTAYFCRDLVRYFQGLGPPPKFQVTLNFWEESHGSSHTPQNLITVKMEQAFARYLLEQTPEQQAAILSLV
Take B1: the binding result is listed as “binds”.
